Chains of the proteins cited; added tags and fusions are not shown. Lines headed by an entry give the natural chain unless they say otherwise; changes in a name come on top.
UniProt Q12809: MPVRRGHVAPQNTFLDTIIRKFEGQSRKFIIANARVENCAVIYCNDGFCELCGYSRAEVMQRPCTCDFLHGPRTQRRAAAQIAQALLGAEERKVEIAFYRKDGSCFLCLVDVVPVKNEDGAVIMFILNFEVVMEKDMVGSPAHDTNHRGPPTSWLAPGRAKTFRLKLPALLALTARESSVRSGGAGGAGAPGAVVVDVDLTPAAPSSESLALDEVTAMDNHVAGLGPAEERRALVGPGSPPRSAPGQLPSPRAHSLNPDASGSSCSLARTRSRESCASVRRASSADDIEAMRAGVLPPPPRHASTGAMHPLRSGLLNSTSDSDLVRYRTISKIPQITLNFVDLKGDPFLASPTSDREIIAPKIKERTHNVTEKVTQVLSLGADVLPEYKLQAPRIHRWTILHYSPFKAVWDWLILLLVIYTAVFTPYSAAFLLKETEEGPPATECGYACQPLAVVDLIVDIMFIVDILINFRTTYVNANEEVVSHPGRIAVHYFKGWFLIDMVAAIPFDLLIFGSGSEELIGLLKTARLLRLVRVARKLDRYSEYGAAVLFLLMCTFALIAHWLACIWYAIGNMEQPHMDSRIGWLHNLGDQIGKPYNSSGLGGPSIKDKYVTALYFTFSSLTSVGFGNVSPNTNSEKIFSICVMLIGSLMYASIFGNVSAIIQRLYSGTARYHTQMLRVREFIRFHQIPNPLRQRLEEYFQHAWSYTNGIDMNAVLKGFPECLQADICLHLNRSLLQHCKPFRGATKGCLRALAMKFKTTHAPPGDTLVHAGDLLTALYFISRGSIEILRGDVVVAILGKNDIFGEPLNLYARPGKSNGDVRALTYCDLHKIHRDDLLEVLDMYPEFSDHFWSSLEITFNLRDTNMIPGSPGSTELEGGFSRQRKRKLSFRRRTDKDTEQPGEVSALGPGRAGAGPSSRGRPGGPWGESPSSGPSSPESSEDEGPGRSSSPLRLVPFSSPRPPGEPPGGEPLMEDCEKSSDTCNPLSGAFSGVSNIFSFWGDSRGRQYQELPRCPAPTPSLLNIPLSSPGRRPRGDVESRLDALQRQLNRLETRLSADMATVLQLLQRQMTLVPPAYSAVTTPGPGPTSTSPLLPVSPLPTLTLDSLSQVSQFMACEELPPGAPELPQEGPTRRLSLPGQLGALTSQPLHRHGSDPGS

According to PMC12251226, “Comparison of in silico predictions of action potential duration in response to inhibition of IKr and ICaL with new human ex vivo recordings” (PLOS Computational Biology, 2025):

Target: hERG channels (Homo sapiens, UniProt Q12809)

SMILES: COC(=O)C1=C(C)NC(C)=C(C(=O)OC)C1c1ccccc1[N+](=O)[O-] [Nifedipine]
- IKr CiPA IC50: inactive
